The record followed here is article PMC7291367 (Frontiers in Chemistry, 2020).

The nature of data set [1]: solution-phase peptide synthesis; HATU, DIPEA. As to conditions: whole synthesis, TFA salt.
The nature of data set [2]: general procedure: solution-phase peptide synthesis; HATU, DIPEA. As to conditions: whole synthesis; for final HPLC purity: HPLC Agilent 1200, Onyx monolithic HD-C18, TFA salt; for isolated yield: overall (10 steps), TFA salt.

For some of these results: The same purity stands for every peptide and may come from a single statement. HELM strings list residues between dots; [ac] is acetyl, [am] amide, other brackets name non-standard units.

Consider PEPTIDE1{K.K.P.[dW].I.[TMSAla]}$$$$V2.0, for which, in data set [1] (overall (12 steps)), the isolated yield is recorded as 11%. Moreover, the “final HPLC purity” value in data set [2] is on record as greater than 95%.

H-Lysψ[CH2NH]Lys-Sip-Tyr-Ile-TMSAla-OH: in data set [1] (overall (10 steps)), the isolated yield was 22%. As to H-Lysψ[CH2NH]Lys-Pro-Lys-Ile-Leu-OH, in data set [2], the “final HPLC purity” value is reported as greater than 95% and the isolated yield amounted to 16%. As to H-Lysψ[CH2NH]Lys-Pro-Lys-Ile-TMSAla-OH, in data set [2], the “final HPLC purity” value is given as greater than 95% and the isolated yield was determined as 14%.
